Experimental data: patent publication US20220074941A1, “HSP90 COMBINATION THERAPY” (Sloan-Kettering Institute for Cancer Research, priority 2011, published 2022)

Tests used:
[1] = tested on: Hsp90 complexes in K562 cell extract; assay: Nano-LC-MS/MS of PU-beads pull-downs; type: binding; conditions: protein identified in PU-beads pull-down of K562 extract, QSTAR-Elite QTof MS
Procedure, shortened: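 Lysates pre-cleared overnight at 4 °C with control beads, then pulled down with PU-beads or control beads; eluted proteins (2% SDS boil) gel-separated and analysed by nano LC-MS/MS on a QTof. Mascot identification (p<0.05), spectral counts and sequence coverage evaluated in Scaffold.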

[2] = tested on: Hsp90 complexes in Mia-PaCa-2 cell extract; assay: Nano-LC-MS/MS of PU-beads pull-downs; type: binding, human; conditions: protein identified in PU-beads pull-down of Mia-Paca 2 extract; QSTAR-Elite QTof MS
Procedure, shortened: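 Lysates pre-cleared overnight at 4 °C with control beads underwent PU-bead pull-down; bound proteins were SDS-eluted, gel-separated, digested and analyzed by nano-LC-MS/MS on a QTof. Identifications used significance p<0.05, 0.4 Da tolerances and one missed cleavage; unique peptide (spectral) counts and sequence coverage were reported.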

Molecule | Number of Assigned Spectra, K562 Prep 1 [1] | Number of Assigned Spectra, K562 Prep 2 [1] | Number of Assigned Spectra, Mia-Paca 2 [2]
NEK9 (protein, UniProt Q8TD19 2-979, looked up) Serine/threonine-protein …: SVLGEYERHCDSINSDFGSESGGCGDSSPGPSASQGPRAGGGAAEQEELHYIPIRVLGRGAFGEATLYRRTEDDSLVVWKEVDLTRLSEKERRDALNEIVILALLQHDNIIAYYNHFMDNTTLLIELEYCNGGNLYDKILRQKDKLFEEEMVVWYLFQIVSAVSCIHKAGILHRDIKTLNIFLTKANLIKLGDYGLAKKLNSEYSMAETLVGTPYYMSPELCQGVKYNFKSDIWAVGCVIFELLTLKRTFDATNPLNLCVKIVQGIRAMEVDSSQYSLELIQMVHSCLDQDPEQRPTADELLDRPLLRKRRREMEEKVTLLNAPTKRPRSSTVTEAPIAVVTSRTSEVYVWGGGKSTPQKLDVIKSGCSARQVCAGNTHFAVVTVEKELYTWVNMQGGTKLHGQLGHGDKASYRQPKHVEKLQGKAIRQVSCGDDFTVCVTDEGQLYAFGSDYYGCMGVDKVAGPEVLEPMQLNFFLSNPVEQVSCGDNHVVVLTRNKEVYSWGCGEYGRLGLDSEEDYYTPQKVDVPKALIIVAVQCGCDGTFLLTQSGKVLACGLNEFNKLGLNQCMSGIINHEAYHEVPYTTSFTLAKQLSFYKIRTIAPGKTHTAAIDERGRLLTFGCNKCGQLGVGNYKKRLGINLLGGPLGGKQVIRVSCGDEFTIAATDDNHIFAWGNGGNGRLAMTPTERPHGSDICTSWPRPIFGSLHHVPDLSCRGWHTILIVEKVLNSKTIRSNSSGLSIGTVFQSSSPGGGGGGGGGEEEDSQQESETPDPSGGFRGTMEADRGMEGLISPTEAMGNSNGASSSCPGWLRKELENAEFIPMPDSPSPLSAAFSESEKDTLPYEELQGLKVASEAPLEHKPQVEASSPRLNPAVTCAGKGTPLTPPACACSSLQVEVERLQGLVLKCLAEQQKLQQENLQIFTQLQKLNKKLEGGQQVGMHSKGTQTAKEEMEMDPKPDLDSDSWCLLGTDSCRPSL | 3 | 3 | 5
CDC45 (protein, UniProt O75419 1-566, looked up) Cell division control protein …: MFVSDFRKEFYEVVQSQRVLLFVASDVDALCACKILQALFQCDHVQYTLVPVSGWQELETAFLEHKEQFHYFILINCGANVDLLDILQPDEDTIFFVCDTHRPVNVVNVYNDTQIKLLIKQDDDLEVPAYEDIFRDEEEDEEHSGNDSDGSEPSEKRTRLEEEIVEQTMRRRQRREWEARRRDILFDYEQYEYHGTSSAMVMFELAWMLSKDLNDMLWWAIVGLTDQWVQDKITQMKYVTDVGVLQRHVSRHNHRNEDEENTLSVDCTRISFEYDLRLVLYQHWSLHDSLCNTSYTAARFKLWSVHGQKRLQEFLADMGLPLKQVKQKFQAMDISLKENLREMIEESANKFGMKDMRVQTFSIHFGFKHKFLASDVVFATMSLMESPEKDGSGTDHFIQALDSLSRSNLDKLYHGLELAKKQLRATQQTIASCLCTNLVISQGPFLYCSLMEGTPDVMLFSRPASLSLLSKHLLKSFVCSTKNRRCKLLPLVMAAPLSMEHGTVTVVGIPPETDSSDRKNFFGRAFEKAAESTSSRMLHNHFDLSVIELKAEDRSKFLDALISLLS | 7 | 7 | 0
CRKL (protein) MSSARFDSSDRSAWYMGPVSRQEAQTRLQGQRHGMFLVRDSSTCPGDYVLSVSENSRVSHYIINSLPNRRFKIGDQEFDHLPALLEFYKIHYLDTTTLIEPAPRYPSPPMGSVSAPNLPTAEDNLEYVRTLYDFPGNDAEDLPFKKGEILVIIEKPEEQWWSARNKDGRVGMIPVPYVEKLVRSSPHGKHGNRNSNSYGIPEPAHAYAQPQTTTPLPAVSGSPGAAITPLPSTQNGPVFAKAIQKRVPCAYDKTALALEVGDIVKVTRMNINGQWEGEVNGRKGLFPFTHVKIFDPQNPDENE | 5 | 0 | 0
BUB1 (protein, UniProt O43683 1-1085, looked up) Mitotic checkpoint …: MDTPENVLQMLEAHMQSYKGNDPLGEWERYIQWVEENFPENKEYLITLLEHLMKEFLDKKKYHNDPRFISYCLKFAEYNSDLHQFFEFLYNHGIGTLSSPLYIAWAGHLEAQGELQHASAVLQRGIQNQAEPREFLQQQYRLFQTRLTETHLPAQARTSEPLHNVQVLNQMITSKSNPGNNMACISKNQGSELSGVISSACDKESNMERRVITISKSEYSVHSSLASKVDVEQVVMYCKEKLIRGESEFSFEELRAQKYNQRRKHEQWVNEDRHYMKRKEANAFEEQLLKQKMDELHKKLHQVVETSHEDLPASQERSEVNPARMGPSVGSQQELRAPCLPVTYQQTPVNMEKNPREAPPVVPPLANAISAALVSPATSQSIAPPVPLKAQTVTDSMFAVASKDAGCVNKSTHEFKPQSGAEIKEGCETHKVANTSSFHTTPNTSLGMVQATPSKVQPSPTVHTKEALGFIMNMFQAPTLPDISDDKDEWQSLDQNEDAFEAQFQKNVRSSGAWGVNKIISSLSSAFHVFEDGNKENYGLPQPKNKPTGARTFGERSVSRLPSKPKEEVPHAEEFLDDSTVWGIRCNKTLAPSPKSPGDFTSAAQLASTPFHKLPVESVHILEDKENVVAKQCTQATLDSCEENMVVPSRDGKFSPIQEKSPKQALSSHMYSASLLRLSQPAAGGVLTCEAELGVEACRLTDTDAAIAEDPPDAIAGLQAEWMQMSSLGTVDAPNFIVGNPWDDKLIFKLLSGLSKPVSSYPNTFEWQCKLPAIKPKTEFQLGSKLVYVHHLLGEGAFAQVYEATQGDLNDAKNKQKFVLKVQKPANPWEFYIGTQLMERLKPSMQHMFMKFYSAHLFQNGSVLVGELYSYGTLLNAINLYKNTPEKVMPQGLVISFAMRMLYMIEQVHDCEIIHGDIKPDNFILGNGFLEQDDEDDLSAGLALIDLGQSIDMKLFPKGTIFTAKCETSGFQCVEMLSNKPWNYQIDYFGVAATVYCMLFGTYMKVKNEGGECKPEGLFRRLPHLDMWNEFFHVMLNIPDCHHLPSLDLLRQKLKKVFQQHYTNKIRALRNRLIVLLLECKRSRK | 1 | 0 | 0
BCR (protein, UniProt P11274 1-1271, looked up) Breakpoint cluster region …: MVDPVGFAEAWKAQFPDSEPPRMELRSVGDIEQELERCKASIRRLEQEVNQERFRMIYLQTLLAKEKKSYDRQRWGFRRAAQAPDGASEPRASASRPQPAPADGADPPPAEEPEARPDGEGSPGKARPGTARRPGAAASGERDDRGPPASVAALRSNFERIRKGHGQPGADAEKPFYVNVEFHHERGLVKVNDKEVSDRISSLGSQAMQMERKKSQHGAGSSVGDASRPPYRGRSSESSCGVDGDYEDAELNPRFLKDNLIDANGGSRPPWPPLEYQPYQSIYVGGMMEGEGKGPLLRSQSTSEQEKRLTWPRRSYSPRSFEDCGGGYTPDCSSNENLTSSEEDFSSGQSSRVSPSPTTYRMFRDKSRSPSQNSQQSFDSSSPPTPQCHKRHRHCPVVVSEATIVGVRKTGQIWPNDGEGAFHGDADGSFGTPPGYGCAADRAEEQRRHQDGLPYIDDSPSSSPHLSSKGRGSRDALVSGALESTKASELDLEKGLEMRKWVLSGILASEETYLSHLEALLLPMKPLKAAATTSQPVLTSQQIETIFFKVPELYEIHKEFYDGLFPRVQQWSHQQRVGDLFQKLASQLGVYRAFVDNYGVAMEMAEKCCQANAQFAEISENLRARSNKDAKDPTTKNSLETLLYKPVDRVTRSTLVLHDLLKHTPASHPDHPLLQDALRISQNFLSSINEEITPRRQSMTVKKGEHRQLLKDSFMVELVEGARKLRHVFLFTDLLLCTKLKKQSGGKTQQYDCKWYIPLTDLSFQMVDELEAVPNIPLVPDEELDALKIKISQIKNDIQREKRANKGSKATERLKKKLSEQESLLLLMSPSMAFRVHSRNGKSYTFLISSDYERAEWRENIREQQKKCFRSFSLTSVELQMLTNSCVKLQTVHSIPLTINKEDDESPGLYGFLNVIVHSATGFKQSSNLYCTLEVDSFGYFVNKAKTRVYRDTAEPNWNEEFEIELEGSQTLRILCYEKCYNKTKIPKEDGESTDRLMGKGQVQLDPQALQDRDWQRTVIAMNGIEVKLSVKFNSREFSLKRMPSRKQTGVFGVKIAVVTKRERSKVPYIVRQCVEEIERRGMEEVGIYRVSGVATDIQALKAAFDVNNKDVSVMMSEMDVNAIAGTLKLYFRELPEPLFTDEFYPNFAEGIALSDPVAKESCMLNLLLSLPEANLLTFLFLLDHLKRVAEKEAVNKMSLHNLATVFGPTLLRPSEKESKLPANPSQPITMTDSWSLEVMSQVQVLLYFLQLEAIPAPDSKRQSILFSTEV | 1 | 4 | 0
